We go through 1 sequence from PMC8191779, “Hinge like domain motion facilitates human RBMS1 protein binding to proto-oncogene c-myc promoter”.

By UniProt entry, the sequences of proteins in these tests, tags left out. Residues count along the entry.
UniProt P29558, 58-224 F107L: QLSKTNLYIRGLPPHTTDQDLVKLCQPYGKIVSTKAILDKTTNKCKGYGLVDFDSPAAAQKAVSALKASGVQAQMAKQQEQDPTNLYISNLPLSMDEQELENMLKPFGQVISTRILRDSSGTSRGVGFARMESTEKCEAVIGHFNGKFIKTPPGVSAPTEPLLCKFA
UniProt P29558, 58-224 Y105S: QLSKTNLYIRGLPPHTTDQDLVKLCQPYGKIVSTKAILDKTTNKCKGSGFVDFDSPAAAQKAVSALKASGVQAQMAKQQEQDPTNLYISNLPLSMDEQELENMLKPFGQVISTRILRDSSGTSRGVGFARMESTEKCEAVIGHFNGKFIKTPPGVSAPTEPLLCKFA
UniProt P29558, 138-224: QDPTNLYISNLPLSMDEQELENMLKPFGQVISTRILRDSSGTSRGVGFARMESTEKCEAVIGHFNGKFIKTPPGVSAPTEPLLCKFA

For part of these data: Negatives hold for the conditions tested. For part of these data: The exact form of at least one protein or probe is not confirmed. For part of these data: A weaker result is weaker than the reference pair of the same experiment. For part of these data: At least one verdict was read from the data and is not stated in words by the source.

What all share (assay): ITC
Data set [1] deals with RBMS1 F107L (Homo sapiens) (UniProt P29558). The conditions noted are these: ITC: 20 mM sodium phosphate pH 7.1, 50 mM NaCl, 303 K, 0.1 mM protein in cell, 1-1.5 mM DNA in syringe; recombinant protein; residues 58-224; protein details: 6xHis removed by TEV; single-stranded DNA.
Data set [2] deals with RBMS1 Y105S (Homo sapiens) (UniProt P29558). The conditions noted are these: ITC: 20 mM sodium phosphate pH 7.1, 50 mM NaCl, 303 K, 0.1 mM protein in cell, 1-1.5 mM DNA in syringe; recombinant protein; residues 58-224; protein details: 6xHis removed by TEV; single-stranded DNA. On the technique in general: ITC needs no label: the signal is the heat of the interaction.
The target in data set [3] is RBMS1 RRM2 (Homo sapiens) (UniProt P29558). Conditions: ITC: 20 mM sodium phosphate pH 7.1, 50 mM NaCl, 303 K, 0.1 mM protein in cell, 1-1.5 mM DNA in syringe; recombinant protein; residues 138-224; protein details: 6xHis removed by TEV; single-stranded DNA.

For the sequence TCTTATT [c-myc consensus TCTTATT], the binding result was “binds more weakly” in data set [1], “binds more weakly” in data set [2] and “no binding” in data set [3].
